The list shows only some results of the screen, not a fair sample: it is rich in T/C values a quarter to a half above the control, in often repeated tests (any T/C) and in doses without a T/C. Other doses and runs of a compound stand elsewhere. T/C: endpoint of the treated group in % of that of the vehicle group. Schedule codes are those of the source, taken here to give the interval after Q, in days (D) or hours (H), and the number of doses after X. Some structures stand for samples that the source files as different forms (salt, stereo form or complex); doses refer to the form tested. Some T/C values carry the count of animals alive at the toxicity check (mostly the fifth day); without a count, all were alive then. Some entries were tested several times; their values stand side by side, smallest first. Some entries give survivors of the animals treated and no T/C: the source holds a T/C of zero for them, seemingly a mark for toxic or unscored doses. Counts of survivors are from the toxicity check (mostly the fifth day) where no day follows; animals may have died later.
System: mice, ADJ-PC-20 plasma cell tumor sc, T/C %
Assay: NCI In Vivo Anticancer Drug Screen. Data for tumor model ADJ-PC-20 Plasma Cell (subcutaneous) in unknown mice
Settings: T/C endpoint: mean tumor weight, higher T/C = larger tumour; for T/C: evaluated on day 21
Protocol: The antitumor activity of compounds was measured in mice bearing transplantable tumors. Survival or tumor size were measured and the results are expressed as the measurement made in the treated group (T) divided by the measurement made in the vehicle treated control group (C). The tumor model used in this assay is ADJ-PC-20 Plasma Cell (subcutaneous) in unknown mice

[1] = dose: 8.0 mg/kg/injection, schedule: Q01DX010 (ip), vehicle: carboxymethylcellulose (CMC)
[2] = dose: 125.0 mg/kg/injection, schedule: Q01DX010 (ip), vehicle: saline
[3] = dose: 125.0 mg/kg/injection, schedule: Q01DX010 (sc), vehicle: steroid suspending solution
[4] = dose: 250.0 mg/kg/injection, schedule: Q01DX010 (sc), vehicle: steroid suspending solution

With `CN(C)c1ccc(/C=C/c2ccnc3ccccc23)cc1` as the compound, how does the T/C [1] read?
Its T/C is 132 and 146 % of control [8 of 10 alive].

And the T/C (dose: 8.0 mg/kg/injection, schedule: Q01DX010 (ip), vehicle: water)?
Its T/C is 143 % of control.

And the survivor count (dose: 32.0 mg/kg/injection, schedule: Q01DX010 (ip), vehicle: carboxymethylcellulose (CMC))?
Its survivor count is 0 of 10.

What about the survivor count (dose: 32.0 mg/kg/injection, schedule: Q01DX010 (ip), vehicle: water) of the same compound?
The survivor count was 0 of 10.

How did the T/C (dose: 31.0 mg/kg/injection, schedule: Q01DX010 (ip), vehicle: carboxymethylcellulose (CMC)) turn out when `CCOC(=O)NP(=O)(N1CC1(C)C)N1CC1(C)C` (stereo not given) was run?
The T/C was 125 % of control [9 of 10 alive].

What about the T/C (dose: 62.5 mg/kg/injection, schedule: Q01DX010 (ip), vehicle: carboxymethylcellulose (CMC)) of the same compound?
The T/C was 146 % of control.

What about the survivor count (dose: 500.0 mg/kg/injection, schedule: Q01DX010 (ip), vehicle: carboxymethylcellulose (CMC)) of the same compound?
The survivor count was 0 of 10.

And the survivor count (dose: 1000.0 mg/kg/injection, schedule: Q01DX010 (ip), vehicle: carboxymethylcellulose (CMC))?
The survivor count was 0 of 10.

`CCOC(N)=O` was tested. Which T/C [2] did it give?
Its T/C is 127 % of control.

What about the survivor count (dose: 1000.0 mg/kg/injection, schedule: Q01DX010 (ip), vehicle: saline) of the same compound?
The survivor count was 0 of 10 and 1 of 10.

Which results are given for `Nc1ncnc2c1ccn2C1OC(CO)C(O)C1O` (stereo not given)?
T/C (dose: 0.31 mg/kg/injection, schedule: Q01DX010 (ip), vehicle: carboxymethylcellulose (CMC)): 125 % of control; survivor count (dose: 1.25 mg/kg/injection, schedule: Q01DX010 (ip), vehicle: carboxymethylcellulose (CMC)): 5 of 10; survivor count (dose: 2.5 mg/kg/injection, schedule: Q01DX010 (ip), vehicle: carboxymethylcellulose (CMC)): 0 of 10

How did the survivor count (dose: 160.0 mg/kg/injection, schedule: Q01DX010 (sc), vehicle: steroid suspending solution) turn out when `CC(=O)O[C@]1(C(C)=O)CC[C@H]2[C@@H]3C[C@H](C)C4=CC(=O)C=C[C@]4(C)[C@@]3(F)[C@@H](O)C[C@@]21C` was run?
The survivor count was 0 of 10.

What about the survivor count (dose: 320.0 mg/kg/injection, schedule: Q01DX010 (sc), vehicle: steroid suspending solution) of the same compound?
Its survivor count is 2 of 10.

Which results are given for `C[C@]12C=CC(=O)C=C1CC[C@@H]1[C@@H]2[C@@H](O)C[C@@]2(C)[C@H]1CC[C@]2(O)C(=O)CO`?
survivor count (dose: 63.0 mg/kg/injection, schedule: Q01DX010 (sc), vehicle: steroid suspending solution): 5 of 10; survivor count [3]: 0 of 10; survivor count [4]: 0 of 10

How did the survivor count (dose: 125.0 mg/kg/injection, schedule: Q01DX010 (ip), vehicle: carboxymethylcellulose (CMC)) turn out when `CCn1cnc2c(=S)nc[nH]c21` was run?
Its survivor count is 0 of 10.

For `O=C(Nc1ccc(C2=NCCCN2)cc1)c1ccc(NC(=O)c2ccc(C3=NCCCN3)cc2)cc1`, which survivor count (dose: 2.0 mg/kg/injection, schedule: Q01DX010 (ip), vehicle: carboxymethylcellulose (CMC)) is on record?
Its survivor count is 3 of 10.

And the survivor count (dose: 4.0 mg/kg/injection, schedule: Q01DX010 (ip), vehicle: carboxymethylcellulose (CMC))?
The survivor count was 5 of 10.

And the survivor count [1]?
The survivor count was 2 of 10.

`C[C@H]1C(=O)O[C@@H]2CCN3CC=C(COC(=O)[C@](C)(O)[C@@]1(C)O)[C@H]23` was tested. Which survivor count (dose: 120.0 mg/kg/injection, schedule: Q01DX010 (ip), vehicle: carboxymethylcellulose (CMC)) did it give?
The survivor count was 3 of 10.

And the survivor count (dose: 240.0 mg/kg/injection, schedule: Q01DX010 (ip), vehicle: carboxymethylcellulose (CMC))?
The survivor count was 0 of 10.

`CCCNc1ncnc2[nH]ncc12` was tested. Which survivor count (dose: 40.0 mg/kg/injection, schedule: Q01DX010 (ip), vehicle: water) did it give?
Its survivor count is 6 of 10.

`O=C(Nc1ccc(C2=NCCN2)cc1)c1ccc(C(=O)Nc2ccc(C3=NCCN3)cc2)cc1` was tested. Which survivor count (dose: 400.0 mg/kg/injection, schedule: Q01DX010 (ip), vehicle: carboxymethylcellulose (CMC)) did it give?
Its survivor count is 1 of 10.

What about the survivor count (dose: 800.0 mg/kg/injection, schedule: Q01DX010 (ip), vehicle: carboxymethylcellulose (CMC)) of the same compound?
Its survivor count is 0 of 10.

With `CN(C)CC(=O)c1ccc(O)c(O)c1` as the compound, how does the T/C [2] read?
The T/C was 125 % of control.

How did the survivor count [3] turn out when `CC/C(=C(/CC)c1ccc(O)cc1)c1ccc(O)cc1` was run?
The survivor count was 4 of 10.

What about the survivor count [4] of the same compound?
Its survivor count is 1 of 10.

And the survivor count (dose: 500.0 mg/kg/injection, schedule: Q01DX010 (sc), vehicle: steroid suspending solution)?
Its survivor count is 0 of 10.

For `N#Cc1cn(C2OC(CO)C(O)C2O)c2ncnc(N)c12` (stereo not given), which survivor count (dose: 0.25 mg/kg/injection, schedule: Q01DX010 (ip), vehicle: carboxymethylcellulose (CMC)) is on record?
The survivor count was 0 of 10.

And the survivor count (dose: 0.5 mg/kg/injection, schedule: Q01DX010 (ip), vehicle: carboxymethylcellulose (CMC))?
The survivor count was 1 of 10.

And the survivor count (dose: 1.0 mg/kg/injection, schedule: Q01DX010 (ip), vehicle: carboxymethylcellulose (CMC))?
The survivor count was 0 of 10.

What does the source list for `CSCS(=O)C[C@H](CO)NC(=O)/C=C/c1c(C)[nH]c(=O)[nH]c1=O` (stereo not given in full)?
survivor count (dose: 1.0 mg/kg/injection, schedule: Q01DX010 (ip), vehicle: saline): 0 of 10; survivor count (dose: 2.0 mg/kg/injection, schedule: Q01DX010 (ip), vehicle: saline): 0 of 10

Which T/C (dose: 3.1 mg/kg/injection, schedule: Q01DX010 (ip), vehicle: carboxymethylcellulose (CMC)) does the source give for `Cn1c(N)nc2nc[nH]c2c1=S` here?
Its T/C is 132 % of control.

And the survivor count (dose: 200.0 mg/kg/injection, schedule: Q01DX010 (ip), vehicle: carboxymethylcellulose (CMC))?
Its survivor count is 6 of 10.

Which survivor count (dose: 50.0 mg/kg/injection, schedule: Q01DX010 (ip), vehicle: carboxymethylcellulose (CMC)) does the source give for `C[n+]1c2ccccc2nc2c(N)cc(N)cc21` here?
Its survivor count is 0 of 10.

`CN(Cc1cnc2nc(N)nc(N)c2n1)c1c(Cl)cc(C(=O)NC(CCC(=O)O)C(=O)O)cc1Cl` (stereo not given) was tested. Which survivor count (dose: 100.0 mg/kg/injection, schedule: Q01DX010 (ip), vehicle: carboxymethylcellulose (CMC)) did it give?
Its survivor count is 1 of 10.

Reference: PubChem BioAssay AID332 (DTP/NCI, 2004)
